Test results: US12508431B2, “Method and apparatus for electrical current therapy of biological tissue and insulin release therefrom” (ROCKY MOUNTAIN BIPHASIC, INC., priority 2019, dated 2025)
At least one compound was matched to its structure with a doubt left.

Tested on: INS-1 cells
Format: cell-based, rat
Details: FIG. 5A/5B
Method: A rat insulinoma cell line INS-1 was obtained and were grown in 6-well polystyrene culture plates as attached monolayers in RPMI1640 culture medium supplemented with 10% fetal bovine serum, 10 mM HEPES, 1 mM sodium pyruvate, 2 mM L-glutamine, 0.05 mM 2-mercaptoethanol, 100 IU/mL penicillin and 100 μg/mL streptomycin (i.e., complete medium). Cells were maintained and experiments were conducted in a humidified atmosphere of 5% CO2 in air at 37° C. Select studies were carried out in glucose-free RPMI1640 culture medium supplemented with reagents as described above. In these experiments, the regular medium was exchanged for glucose-free medium 16 hours prior to the electrical stimulation experiment.
ACBPS was applied to cells using a C-Pace EP cell culture stimulator in combination with a C-dish electrode array for a 6-well plate. Control cells were mock stimulated using an identical 6-well C-dish electrode array that was not connected to the stimulator. […]
Insulin release from INS-1 cells into the culture medium was determined by ELISA (Rat Insulin ELISA Kit) per the manufacturer's instructions. […] The insulin concentration of the culture medium was measured by colorimetric ELISA using 2 μL of the culture medium as described by the manufacturer. […]

COC(=O)C1=C(C)NC(C)=C(C(=O)OC)C1c1ccccc1[N+](=O)[O-] [nifedipine]
ACBPS-induced insulin release (ACBPS 10 Hz, 25 V): inhibited
basal insulin release (mock stimulation): inhibited
